# According to the supplement of paper PMC4604168 (melanoma cell lines):
# The list shows a part of the results. Single values are uncertain, as repeats are few or missing.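 Imaging used 1,536-well plates; nuclei positive for cleaved PARP by antibody were divided by total DNA-stained nuclei to yield the apoptosis fraction. Doses for screening kept most cells viable, and cell lines differ markedly in resting and induced cleaved-PARP levels.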
# Legend:
# Experiment in all cases: cleaved PARP positive nuclei fraction relative to DMSO control; melanoma cells; higher = more apoptosis
# Conditions in all cases: library dose: low library concentration; 72 h
# CBRC034 = tested on: CBRC034 (line from a melanoma biopsy)
# COLO792 = tested on: COLO792
# COLO800 = tested on: COLO800
# COLO829 = tested on: COLO829
# G361 = tested on: G361
# IPC-298 = tested on: IPC-298
# IST-MEL1 = tested on: IST-MEL1
# LB2518-MEL = tested on: LB2518-MEL
# LOXIMVI = tested on: LOXIMVI
# MEL-HO = tested on: MEL-HO
# MZ2-MEL = tested on: MZ2-MEL
# MeWo = tested on: MeWo
# RPMI7951 = tested on: RPMI7951
# RVH-421 = tested on: RVH-421
# SkMel28 = tested on: SkMel28
# SkMel2 = tested on: SkMel2
# SkMel30 = tested on: SkMel30
# UACC62 = tested on: UACC62
# SkMel5 = tested on: SkMel5
# UACC257 = tested on: UACC257
Compound,cleaved PARP positive nuclei fraction (CBRC034) [%],cleaved PARP positive nuclei fraction (COLO792) [%],cleaved PARP positive nuclei fraction (COLO800) [%],cleaved PARP positive nuclei fraction (COLO829) [%],cleaved PARP positive nuclei fraction (G361) [%],cleaved PARP positive nuclei fraction (IPC-298) [%],cleaved PARP positive nuclei fraction (IST-MEL1) [%],cleaved PARP positive nuclei fraction (LB2518-MEL) [%],cleaved PARP positive nuclei fraction (LOXIMVI) [%],cleaved PARP positive nuclei fraction (MEL-HO) [%],cleaved PARP positive nuclei fraction (MZ2-MEL) [%],cleaved PARP positive nuclei fraction (MeWo) [%],cleaved PARP positive nuclei fraction (RPMI7951) [%],cleaved PARP positive nuclei fraction (RVH-421) [%],cleaved PARP positive nuclei fraction (SkMel28) [%],cleaved PARP positive nuclei fraction (SkMel2) [%],cleaved PARP positive nuclei fraction (SkMel30) [%],cleaved PARP positive nuclei fraction (UACC62) [%],cleaved PARP positive nuclei fraction (SkMel5) [%],cleaved PARP positive nuclei fraction (UACC257) [%]
"CC(=O)c1c(C)c2cnc(Nc3ccc(N4CCNCC4)cn3)nc2n(C2CCCC2)c1=O [palbociclib] + Cc1nc(Nc2ncc(C(=O)Nc3c(C)cccc3Cl)s2)cc(N2CCN(CCO)CC2)n1 [dasatanib] (first compound 0.04 µM, partner dose 0.004 µM)",80.2,259,18.8,160,236,95.9,71.4,270,1880,67.2,24.5,80.4,78.6,488,89.1,121,83.5,342,,
"C=CCNC1=C2C[C@@H](C)C[C@H](OC)[C@H](O)[C@@H](C)/C=C(\C)[C@H](OC(N)=O)[C@@H](OC)/C=C\C=C(/C)C(=O)NC(=CC1=O)C2=O [Tanespimycin] + Nc1cccc2c1CN(C1CCC(=O)NC1=O)C2=O [lenalidomide] (first compound 0.002 µM, partner dose 1 µM)",60.7,132,122,137,178,115,120,106,284,293,125,116,154,73.7,183,112,72.2,134,,
"OCc1c[nH]c2ccccc12 [Indole-3-carbinol] + COc1ccc(Cl)c(Nc2nc3ccccc3nc2NS(=O)(=O)c2cccc(NC(=O)C(C)(C)N)c2)c1 [XL147] (first compound 0.8 µM, partner dose 0.8 µM)",106,174,115,106,106,87.9,61.4,111,88.3,87.7,269,50.5,79.3,87.5,26.6,164,57.7,69.9,,
"Cc1nc(Nc2ncc(C(=O)Nc3c(C)cccc3Cl)s2)cc(N2CCN(CCO)CC2)n1 [dasatanib] + COc1ccc2c(c1)CCC1C2CCC2(C)C(NCCCCCCN3C(=O)C=CC3=O)CCC12 [U73122] (first compound 0.004 µM, partner dose 0.4 µM)",143,178,294,144,161,107,49.8,97.5,29.9,,53.9,123,192,73.9,191,,20.1,120,45.5,234
"Cn1cncc1[C@@](N)(c1ccc(Cl)cc1)c1ccc2c(c1)c(-c1cccc(Cl)c1)cc(=O)n2C [tipifarnib] + Cn1cc(/C=C2\C(=O)Nc3cccnc32)c2ccccc21 [GW441756] (first compound 0.01 µM, partner dose 0.4 µM)",42.4,77.5,127,67.5,79.7,122,174,79,31.3,,109,54.6,83.2,57.7,144,,45.2,38.4,18.6,296
"OCc1c[nH]c2ccccc12 [Indole-3-carbinol] + COCC[n+]1c2c(n(Cc3cnccn3)c1C)C(=O)c1ccccc1C2=O [YM155] (first compound 0.8 µM, partner dose 0.0004 µM)",110,64.2,64.3,54.1,55,95.6,92.7,120,99.2,39.8,259,174,127,43.5,106,185,220,44.4,,
"Cn1c(Nc2ccc(C(F)(F)F)cc2)nc2cc(Oc3ccnc(-c4ncc(C(F)(F)F)[nH]4)c3)ccc21 + C[C@]1(c2nc3c(C(N)=O)cccc3[nH]2)CCCN1 [Veliparib] (first compound 0.08 µM, partner dose 1.4 µM)",67.9,247,100,96.7,246,74.8,63.4,502,235,305,126,186,107,125,78.1,139,84.8,152,,
"OCc1c[nH]c2ccccc12 [Indole-3-carbinol] + C#Cc1cccc(Nc2ncnc3cc(OCCOC)c(OCCOC)cc23)c1 [erlotinib] (first compound 0.8 µM, partner dose 0.8 µM)",93.4,99,123,91.4,82.2,49.1,61.1,117,141,120,138,87.7,73.2,81.8,89.6,137,66.8,143,,
"Nc1cccc2c1CN(C1CCC(=O)NC1=O)C2=O (configuration not stated) [lenalidomide] + COc1ccc(-c2ccc3c(N4CCOCC4)nc(N4C[C@@H](C)O[C@@H](C)C4)nc3n2)cc1CO [KU0063794] (first compound 1 µM, partner dose 0.02 µM)",99.3,128,139,64.7,138,130,344,79.3,71.1,,117,127,45.3,138,129,,45.8,82.2,107,187
